± gives the standard deviation of the averaged measurements. Only a part is listed here, and it is no random draw.

Chains of the proteins cited; added tags and fusions are not shown. Lines headed by an entry give the natural chain unless they say otherwise; changes in a name come on top.
UniProt Q9NVA2: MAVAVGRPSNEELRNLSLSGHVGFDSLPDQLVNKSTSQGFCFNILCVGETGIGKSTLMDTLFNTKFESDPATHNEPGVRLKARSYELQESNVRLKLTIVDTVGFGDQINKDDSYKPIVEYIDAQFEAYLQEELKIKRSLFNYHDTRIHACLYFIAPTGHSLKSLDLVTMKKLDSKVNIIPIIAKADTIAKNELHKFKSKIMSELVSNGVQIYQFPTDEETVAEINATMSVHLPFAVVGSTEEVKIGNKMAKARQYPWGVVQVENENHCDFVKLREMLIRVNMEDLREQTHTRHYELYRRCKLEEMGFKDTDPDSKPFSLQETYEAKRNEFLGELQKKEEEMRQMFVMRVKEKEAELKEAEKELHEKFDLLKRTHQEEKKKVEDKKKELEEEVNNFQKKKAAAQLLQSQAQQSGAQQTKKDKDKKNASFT
UniProt O76054, whole entry: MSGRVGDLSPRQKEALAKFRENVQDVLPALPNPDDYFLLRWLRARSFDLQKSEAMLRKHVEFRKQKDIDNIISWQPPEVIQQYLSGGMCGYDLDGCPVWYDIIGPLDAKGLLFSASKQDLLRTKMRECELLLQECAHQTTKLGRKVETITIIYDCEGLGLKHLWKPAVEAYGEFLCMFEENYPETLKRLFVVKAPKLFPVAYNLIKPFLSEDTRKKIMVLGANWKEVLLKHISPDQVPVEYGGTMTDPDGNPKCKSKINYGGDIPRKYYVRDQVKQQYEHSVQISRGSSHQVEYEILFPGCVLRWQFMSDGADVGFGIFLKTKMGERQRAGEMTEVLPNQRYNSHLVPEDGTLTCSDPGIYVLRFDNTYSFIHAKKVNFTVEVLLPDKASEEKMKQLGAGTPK
UniProt Q9Y312: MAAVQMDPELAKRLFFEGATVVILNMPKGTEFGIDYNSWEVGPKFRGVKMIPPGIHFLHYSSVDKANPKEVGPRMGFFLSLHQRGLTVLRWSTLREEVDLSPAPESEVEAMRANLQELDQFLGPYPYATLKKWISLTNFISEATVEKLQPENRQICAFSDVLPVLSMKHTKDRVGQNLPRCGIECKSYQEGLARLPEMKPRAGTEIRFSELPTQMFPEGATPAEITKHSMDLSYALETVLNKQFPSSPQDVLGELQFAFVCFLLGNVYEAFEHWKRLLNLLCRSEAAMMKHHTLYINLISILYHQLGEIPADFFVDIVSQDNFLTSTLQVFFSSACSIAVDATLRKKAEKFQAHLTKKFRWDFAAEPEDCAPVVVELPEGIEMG
UniProt Q9BYB0: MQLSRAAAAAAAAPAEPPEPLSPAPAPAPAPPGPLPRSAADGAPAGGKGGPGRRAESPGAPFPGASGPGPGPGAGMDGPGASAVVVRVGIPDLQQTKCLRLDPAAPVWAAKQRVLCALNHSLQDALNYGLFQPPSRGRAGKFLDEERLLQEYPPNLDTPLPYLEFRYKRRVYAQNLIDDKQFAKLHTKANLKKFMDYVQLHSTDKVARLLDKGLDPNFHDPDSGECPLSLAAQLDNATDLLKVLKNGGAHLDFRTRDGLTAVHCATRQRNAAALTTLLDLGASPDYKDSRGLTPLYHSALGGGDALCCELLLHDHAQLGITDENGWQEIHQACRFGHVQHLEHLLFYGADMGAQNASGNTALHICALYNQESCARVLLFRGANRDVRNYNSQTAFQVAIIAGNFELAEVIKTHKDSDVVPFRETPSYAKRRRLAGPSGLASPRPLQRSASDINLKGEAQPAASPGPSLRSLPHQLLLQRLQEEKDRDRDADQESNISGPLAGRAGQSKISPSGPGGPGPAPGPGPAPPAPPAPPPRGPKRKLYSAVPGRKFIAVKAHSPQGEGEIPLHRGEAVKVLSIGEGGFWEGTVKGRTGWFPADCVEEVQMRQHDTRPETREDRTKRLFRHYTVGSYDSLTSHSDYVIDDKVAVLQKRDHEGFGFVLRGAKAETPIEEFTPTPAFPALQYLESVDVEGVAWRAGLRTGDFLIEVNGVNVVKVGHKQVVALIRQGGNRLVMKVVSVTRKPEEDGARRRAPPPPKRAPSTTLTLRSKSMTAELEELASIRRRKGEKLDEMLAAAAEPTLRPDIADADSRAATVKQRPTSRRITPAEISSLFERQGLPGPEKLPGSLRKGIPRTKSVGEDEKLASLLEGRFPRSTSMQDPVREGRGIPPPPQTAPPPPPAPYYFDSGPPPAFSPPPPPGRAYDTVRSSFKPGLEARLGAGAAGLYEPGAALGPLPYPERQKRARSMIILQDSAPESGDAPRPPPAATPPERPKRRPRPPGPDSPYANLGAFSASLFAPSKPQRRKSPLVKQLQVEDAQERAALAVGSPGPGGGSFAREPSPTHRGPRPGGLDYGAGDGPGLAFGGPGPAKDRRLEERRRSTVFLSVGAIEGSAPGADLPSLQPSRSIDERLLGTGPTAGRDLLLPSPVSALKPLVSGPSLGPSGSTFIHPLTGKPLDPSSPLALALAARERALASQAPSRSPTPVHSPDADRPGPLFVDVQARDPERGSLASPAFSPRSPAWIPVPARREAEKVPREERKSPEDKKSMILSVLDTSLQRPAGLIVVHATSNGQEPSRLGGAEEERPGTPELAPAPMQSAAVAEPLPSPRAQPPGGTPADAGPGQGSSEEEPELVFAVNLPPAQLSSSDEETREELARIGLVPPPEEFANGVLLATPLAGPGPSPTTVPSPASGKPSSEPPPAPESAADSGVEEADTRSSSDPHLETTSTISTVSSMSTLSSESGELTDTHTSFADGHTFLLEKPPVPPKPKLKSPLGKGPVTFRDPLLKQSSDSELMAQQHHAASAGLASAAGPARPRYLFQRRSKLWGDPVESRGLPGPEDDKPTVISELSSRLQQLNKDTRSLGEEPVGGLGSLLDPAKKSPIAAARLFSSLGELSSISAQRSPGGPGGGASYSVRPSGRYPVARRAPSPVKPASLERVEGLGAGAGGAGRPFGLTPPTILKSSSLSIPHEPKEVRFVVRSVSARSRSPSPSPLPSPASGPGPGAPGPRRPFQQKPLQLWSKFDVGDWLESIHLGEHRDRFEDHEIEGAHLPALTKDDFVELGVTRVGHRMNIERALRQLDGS
UniProt Q96GF1: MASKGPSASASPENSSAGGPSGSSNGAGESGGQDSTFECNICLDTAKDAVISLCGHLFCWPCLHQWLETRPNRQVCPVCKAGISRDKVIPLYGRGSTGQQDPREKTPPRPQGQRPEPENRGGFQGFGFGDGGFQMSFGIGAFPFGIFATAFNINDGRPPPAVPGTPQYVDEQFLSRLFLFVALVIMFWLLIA
UniProt O15304: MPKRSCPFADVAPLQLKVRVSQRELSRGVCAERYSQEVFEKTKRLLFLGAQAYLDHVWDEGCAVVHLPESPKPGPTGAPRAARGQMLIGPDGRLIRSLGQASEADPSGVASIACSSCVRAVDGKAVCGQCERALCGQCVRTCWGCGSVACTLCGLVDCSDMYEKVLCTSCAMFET
UniProt Q9UFF9, whole entry: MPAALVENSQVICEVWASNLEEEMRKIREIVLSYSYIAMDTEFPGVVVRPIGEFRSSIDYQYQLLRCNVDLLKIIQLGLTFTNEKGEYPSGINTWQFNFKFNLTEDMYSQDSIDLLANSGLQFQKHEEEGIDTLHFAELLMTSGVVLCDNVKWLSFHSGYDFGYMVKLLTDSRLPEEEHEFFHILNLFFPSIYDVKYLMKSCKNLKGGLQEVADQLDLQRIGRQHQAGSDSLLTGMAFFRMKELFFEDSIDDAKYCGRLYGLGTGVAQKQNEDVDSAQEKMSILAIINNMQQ
UniProt Q5JTW2: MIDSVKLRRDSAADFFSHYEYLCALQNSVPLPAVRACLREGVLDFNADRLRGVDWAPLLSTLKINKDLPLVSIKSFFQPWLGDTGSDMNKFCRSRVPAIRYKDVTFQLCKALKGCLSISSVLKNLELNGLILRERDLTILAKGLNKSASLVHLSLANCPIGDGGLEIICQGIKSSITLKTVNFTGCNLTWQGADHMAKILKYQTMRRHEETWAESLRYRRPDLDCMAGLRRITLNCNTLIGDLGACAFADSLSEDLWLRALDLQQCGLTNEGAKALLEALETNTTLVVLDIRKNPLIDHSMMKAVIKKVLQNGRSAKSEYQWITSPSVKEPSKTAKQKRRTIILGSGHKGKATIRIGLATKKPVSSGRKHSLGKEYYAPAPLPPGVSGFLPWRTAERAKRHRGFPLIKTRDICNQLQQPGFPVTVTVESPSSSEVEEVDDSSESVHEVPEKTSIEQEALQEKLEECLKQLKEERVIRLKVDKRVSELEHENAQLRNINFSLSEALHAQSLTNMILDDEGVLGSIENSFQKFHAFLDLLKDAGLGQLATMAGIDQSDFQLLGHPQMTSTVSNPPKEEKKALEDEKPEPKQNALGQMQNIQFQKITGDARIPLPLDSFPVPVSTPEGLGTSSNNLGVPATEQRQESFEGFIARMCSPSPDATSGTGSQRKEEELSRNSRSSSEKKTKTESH
UniProt O75817: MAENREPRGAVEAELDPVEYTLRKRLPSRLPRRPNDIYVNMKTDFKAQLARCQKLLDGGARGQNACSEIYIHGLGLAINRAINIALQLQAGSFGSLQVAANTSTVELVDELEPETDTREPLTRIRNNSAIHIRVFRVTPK
UniProt A6NJ78: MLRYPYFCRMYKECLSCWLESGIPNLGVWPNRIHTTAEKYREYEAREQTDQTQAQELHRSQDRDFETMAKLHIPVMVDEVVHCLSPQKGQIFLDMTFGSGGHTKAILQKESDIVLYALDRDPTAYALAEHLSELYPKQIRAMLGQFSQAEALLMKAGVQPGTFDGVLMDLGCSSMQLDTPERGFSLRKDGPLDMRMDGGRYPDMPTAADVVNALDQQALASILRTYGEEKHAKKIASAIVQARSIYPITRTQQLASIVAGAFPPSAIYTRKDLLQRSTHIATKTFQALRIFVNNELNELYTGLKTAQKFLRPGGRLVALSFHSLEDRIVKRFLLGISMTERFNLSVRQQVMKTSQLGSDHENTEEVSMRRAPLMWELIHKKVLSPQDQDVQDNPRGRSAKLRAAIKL
UniProt A6NFI3: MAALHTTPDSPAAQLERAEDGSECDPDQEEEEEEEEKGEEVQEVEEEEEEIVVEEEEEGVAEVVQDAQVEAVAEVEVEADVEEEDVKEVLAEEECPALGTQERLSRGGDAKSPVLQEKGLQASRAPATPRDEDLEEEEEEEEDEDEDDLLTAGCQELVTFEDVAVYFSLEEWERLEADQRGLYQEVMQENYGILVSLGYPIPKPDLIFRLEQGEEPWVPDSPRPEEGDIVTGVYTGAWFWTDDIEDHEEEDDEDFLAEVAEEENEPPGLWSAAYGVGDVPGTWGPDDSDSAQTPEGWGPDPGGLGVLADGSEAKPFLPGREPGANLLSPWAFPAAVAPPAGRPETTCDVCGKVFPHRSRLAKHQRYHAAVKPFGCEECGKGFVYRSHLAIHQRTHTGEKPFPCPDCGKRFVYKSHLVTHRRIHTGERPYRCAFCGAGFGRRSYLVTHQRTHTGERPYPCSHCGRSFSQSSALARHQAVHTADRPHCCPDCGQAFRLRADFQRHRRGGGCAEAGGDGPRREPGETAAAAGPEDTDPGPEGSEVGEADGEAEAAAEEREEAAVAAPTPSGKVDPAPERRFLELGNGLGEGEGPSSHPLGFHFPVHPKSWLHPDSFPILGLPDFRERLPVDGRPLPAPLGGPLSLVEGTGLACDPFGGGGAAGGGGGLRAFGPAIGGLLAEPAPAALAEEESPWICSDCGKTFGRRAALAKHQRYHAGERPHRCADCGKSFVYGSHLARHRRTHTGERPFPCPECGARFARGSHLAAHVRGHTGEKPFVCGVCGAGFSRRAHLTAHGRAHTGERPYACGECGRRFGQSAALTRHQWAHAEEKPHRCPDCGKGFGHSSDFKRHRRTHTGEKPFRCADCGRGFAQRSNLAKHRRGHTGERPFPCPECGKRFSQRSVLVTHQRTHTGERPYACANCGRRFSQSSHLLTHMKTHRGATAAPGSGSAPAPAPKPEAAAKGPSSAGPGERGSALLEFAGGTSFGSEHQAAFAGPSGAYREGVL

Consider 15 targets from the supplement of paper PMC6411743.

Compound in the assay: Nc1ncnc2c1ncn2[C@@H]1O[C@H](COP(=O)(O)OP(=O)(O)OP(=O)(O)O)[C@@H](O)[C@H]1O [adenosine triphosphate]
Nature of the assay: NP40-soluble protein abundance relative to vehicle (solubility fold change) (ratio); higher = more soluble protein in presence of ATP. Summed up: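 Data come from three independent experiments in which Dounce-homogenised Jurkat crude lysate was treated at eight concentrations from 0.1 to 10 mM. Treatment ran 10 min at room temperature and then 3 min at 37 °C, after which 0.8% NP40 and benzonase were added for 60 min at 4 °C before ultracentrifugation. The supernatant underwent TMT labelling and LC-MS/MS, and vsn-normalised intensities were expressed as fold change against the detergent-processed vehicle in each replicate.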

Take “D6RER5 and related entries (UniProt Q9NVA2)”: the NP40-soluble protein abundance reads like this: (concentration: 1mM) 1 ± 0.032; (concentration: 2mM) 1.01 ± 0.027; (concentration: 4mM) 0.982 ± 0.011; (concentration: 6mM) 1.01 ± 0.04; (concentration: 8mM) 0.943 ± 0.025; (concentration: 10mM) 0.9937 ± 0.004.
Consider “B3KRD8 and related entries (UniProt O76054)”, for which the NP40-soluble protein abundance turned out to be 0.991 ± 0.054 (concentration: 1mM); 0.998 ± 0.021 (concentration: 2mM); 0.934 ± 0.059 (concentration: 4mM); 0.981 ± 0.084 (concentration: 6mM); 0.906 ± 0.044 (concentration: 8mM); 0.923 ± 0.011 (concentration: 10mM).
Take “A2A2Q9 and related entries (UniProt Q9Y312)”: the NP40-soluble protein abundance (concentration: 1mM) amounted to 0.924 ± 0.056; the NP40-soluble protein abundance (concentration: 2mM) stood at 0.961 ± 0.013; the NP40-soluble protein abundance (concentration: 4mM) stood at 0.963 ± 0.033; the NP40-soluble protein abundance (concentration: 6mM) turned out to be 0.982 ± 0.07; the NP40-soluble protein abundance (concentration: 8mM) came to 0.945 ± 0.03; the NP40-soluble protein abundance (concentration: 10mM) was 0.959 ± 0.035.
Turning to “C9JLU1 and related entries (UniProt P52434)”, the NP40-soluble protein abundance is, setting by setting: (concentration: 1mM) 1.08 ± 0.19; (concentration: 2mM) 0.976 ± 0.14; (concentration: 4mM) 0.996 ± 0.16; (concentration: 6mM) 0.94 ± 0.13; (concentration: 8mM) 1.02 ± 0.099; (concentration: 10mM) 0.957 ± 0.07.
For “A0A0U1RQS4|A0A0U1RR93|Q9BYB0 and related entries (UniProt Q9BYB0)”, the NP40-soluble protein abundance is, setting by setting: (concentration: 1mM) 1.02 ± 0.045; (concentration: 2mM) 0.9494 ± 0.0062; (concentration: 4mM) 0.985 ± 0.013; (concentration: 6mM) 0.954 ± 0.01; (concentration: 8mM) 1.091 ± 0.005; (concentration: 10mM) 1.05 ± 0.016.
For “A9X3U0 and related entries (UniProt Q96GF1)”, the NP40-soluble protein abundance runs as follows: (concentration: 1mM) 0.982 ± 0.1; (concentration: 2mM) 0.997 ± 0.12; (concentration: 4mM) 0.964 ± 0.15; (concentration: 6mM) 1 ± 0.13; (concentration: 8mM) 0.96 ± 0.16; (concentration: 10mM) 0.959 ± 0.16.
As for “B4DTY2 and related entries (UniProt O15304)”, the NP40-soluble protein abundance is 1.01 ± 0.069 (concentration: 1mM); 1.05 ± 0.013 (concentration: 2mM); 1.13 ± 0.12 (concentration: 4mM); 1.02 ± 0.088 (concentration: 6mM); 1.04 ± 0.14 (concentration: 8mM); 1.11 ± 0.17 (concentration: 10mM).
For the target “B7Z9U0 and related entries (UniProt Q9UFF9)”, the NP40-soluble protein abundance is, setting by setting: (concentration: 1mM) 1.05 ± 0.12; (concentration: 2mM) 1.07 ± 0.098; (concentration: 4mM) 1.139 ± 0.011; (concentration: 6mM) 1.21 ± 0.1; (concentration: 8mM) 1.22 ± 0.077; (concentration: 10mM) 1.18 ± 0.17.
Turning to “A8MST6 and related entries (UniProt Q5JTW2)”, the NP40-soluble protein abundance (concentration: 1mM) was 1.04 ± 0.11; the NP40-soluble protein abundance (concentration: 2mM) is 0.977 ± 0.22; the NP40-soluble protein abundance (concentration: 4mM) is 0.977 ± 0.24; the NP40-soluble protein abundance (concentration: 6mM) stood at 1.09 ± 0.29; the NP40-soluble protein abundance (concentration: 8mM) stood at 0.938 ± 0.14; the NP40-soluble protein abundance (concentration: 10mM) was 0.909 ± 0.25.
Regarding “C9JYM0 and related entries (UniProt O75817)”, the NP40-soluble protein abundance was determined as 1.11 ± 0.13 (concentration: 1mM); 1.06 ± 0.077 (concentration: 2mM); 1.13 ± 0.16 (concentration: 4mM); 1.03 ± 0.031 (concentration: 6mM); 1.04 ± 0.036 (concentration: 8mM); 1.11 ± 0.077 (concentration: 10mM).
Regarding “D6RD47 and related entries (UniProt P62266)”, the NP40-soluble protein abundance (concentration: 1mM) turned out to be 0.918 ± 0.052; the NP40-soluble protein abundance (concentration: 2mM) was determined as 0.9 ± 0.077; the NP40-soluble protein abundance (concentration: 4mM) worked out at 0.869 ± 0.069; the NP40-soluble protein abundance (concentration: 6mM) was found to be 0.81 ± 0.097; the NP40-soluble protein abundance (concentration: 8mM) was 0.785 ± 0.09; the NP40-soluble protein abundance (concentration: 10mM) stood at 0.831 ± 0.056.
On to UniProt A6NJ78, for which the NP40-soluble protein abundance (concentration: 1mM) stood at 0.987 ± 0.015; the NP40-soluble protein abundance (concentration: 2mM) was 0.955 ± 0.099; the NP40-soluble protein abundance (concentration: 4mM) was 0.931 ± 0.055; the NP40-soluble protein abundance (concentration: 6mM) was found to be 0.96 ± 0.035; the NP40-soluble protein abundance (concentration: 8mM) was found to be 0.949 ± 0.071; the NP40-soluble protein abundance (concentration: 10mM) worked out at 0.922 ± 0.19.
As for “A0A0G2JNC5|A0A0G2JNH7|F8WCM8 and related entries (UniProt O15197)”, the NP40-soluble protein abundance stood at 0.954 ± 0.059 (concentration: 1mM); 1.08 ± 0.083 (concentration: 2mM); 1.06 ± 0.12 (concentration: 4mM); 0.969 ± 0.12 (concentration: 6mM); 1.04 ± 0.04 (concentration: 8mM); 1.06 ± 0.065 (concentration: 10mM).
Turning to “A0A0G2JNB1|A0A0G2JNT7|Q7Z3B3 and related entries (UniProt Q7Z3B3)”, the NP40-soluble protein abundance (concentration: 1mM) turned out to be 1.06 ± 0.051; the NP40-soluble protein abundance (concentration: 2mM) stood at 1.05 ± 0.048; the NP40-soluble protein abundance (concentration: 4mM) came out at 1.08 ± 0.088; the NP40-soluble protein abundance (concentration: 6mM) is 1.1 ± 0.14; the NP40-soluble protein abundance (concentration: 8mM) amounted to 1.13 ± 0.1; the NP40-soluble protein abundance (concentration: 10mM) is 1.15 ± 0.11.
ZNF316 (UniProt A6NFI3): the NP40-soluble protein abundance came to 0.974 ± 0.027 (concentration: 1mM); 0.98 ± 0.055 (concentration: 2mM); 0.947 ± 0.032 (concentration: 4mM); 0.954 ± 0.048 (concentration: 6mM); 0.969 ± 0.027 (concentration: 8mM); 0.962 ± 0.034 (concentration: 10mM).
